Source: patent publication US20120172333A1, “PYRROLO-PYRIDINE DERIVATIVES AS ACTIVATORS OF AMPK” (GLAXOSMITHKLINE LLC, priority 2009, published 2012)
Some entries share one result that the patent states for a list of compounds.

System: Human recombinant AMPK
Assay: AMPK enzymatic assay (Z'Lyte FRET)
Format: biochemical
Conditions: ATP 100 μM, peptide 2 μM, 1% DMSO, 1 hour at 30° C.; means of at least 2 independent experiments

SMILES	pEC200 (-Log(compound concentration leading to a 2-fold AMPK activity increase))
O=c1cc(O)c2c(ccn2-c2ccc(-c3ccccc3O)cc2)[nH]1 [Example 21, 7-Hydroxy-1-(2′-hydroxy-4-biphenylyl)-1,4-dihydro-5H-pyrrolo[3,2-b]pyridin-5-one]	greater than 4.0
COc1ccc(-c2ccc(-n3c(Cl)cc4[nH]c(=O)c(C#N)c(O)c43)cc2)cc1 [Example 29, 2-Chloro-7-hydroxy-1-[4′-(methyloxy)-4-biphenylyl]-5-oxo-4,5-dihydro-1H-pyrrolo[3,2-b]pyridine-6-carbonitrile]	greater than 4.0
Cc1ccc(-c2ccc(-n3ccc4[nH]c(=O)c(C#N)c(O)c43)cc2)c(C)c1 [Example 47, 1-(2′,4′-Dimethyl-4-biphenylyl)-7-hydroxy-5-oxo-4,5-dihydro-1H-pyrrolo[3,2-b]pyridine-6-carbonitrile]	greater than 4.0
COc1cccc(-c2ccc(-n3c(Cl)cc4[nH]c(=O)c(C#N)c(O)c43)cc2)c1O [Example 24, 2-Chloro-7-hydroxy-1-[2′-hydroxy-3′-(methyloxy)-4-biphenylyl]-5-oxo-4,5-dihydro-1H-pyrrolo[3,2-b]pyridine-6-carbonitrile]	greater than 4.0
N#Cc1c(O)c2c(ccn2-c2ccc(-c3ccc(F)cc3)cc2)[nH]c1=O [Example 6, 1-(4′-Fluoro-4-biphenylyl)-7-hydroxy-5-oxo-4,5-dihydro-1H-pyrrolo[3,2-b]pyridine-6-carbonitrile]	greater than 4.0
N#Cc1ccc(-c2ccc(-n3ccc4[nH]c(=O)c(C#N)c(O)c43)cc2)nc1 [Example 51, 1-[4-(5-Cyano-2-pyridinyl)phenyl]-7-hydroxy-5-oxo-4,5-dihydro-1H-pyrrolo[3,2-b]pyridine-6-carbonitrile]	greater than 4.0
N#Cc1c(O)c2c(cc(Cl)n2-c2ccc(-c3ccc(Cl)cc3O)cc2)[nH]c1=O [Example 76, 2-Chloro-1-(4′-chloro-2′-hydroxy-4-biphenylyl)-7-hydroxy-5-oxo-4,5-dihydro-1H-pyrrolo[3,2-b]pyridine-6-carbonitrile]	greater than 4.0
O=c1[nH]c2ccn(-c3ccc(-c4ccccc4O)cc3)c2c(O)c1-c1ccccc1 [Example 40, 7-Hydroxy-1-(2′-hydroxy-4-biphenylyl)-6-phenyl-1,4-dihydro-5H-pyrrolo[3,2-b]pyridin-5-one]	greater than 4.0
N#Cc1c(O)c2c(ccn2-c2ccc(-c3ccc(C(F)(F)F)cc3)cc2)[nH]c1=O [Example 14, 7-Hydroxy-5-oxo-1-[4′-(trifluoromethyl)-4-biphenylyl]-4,5-dihydro-1H-pyrrolo[3,2-b]pyridine-6-carbonitrile]	greater than 4.0
COc1ccc(-c2ccc(-n3ccc4[nH]c(=O)c(C#N)c(O)c43)cc2)cc1 [Example 3, 7-Hydroxy-1-[4′-(methyloxy)-4-biphenylyl]-5-oxo-4,5-dihydro-1H-pyrrolo[3,2-b]pyridine-6-carbonitrile]	greater than 4.0
N#Cc1c(O)c2c(ccn2-c2ccc(Br)cc2)[nH]c1=O [Example 1, 1-(4-Bromophenyl)-7-hydroxy-5-oxo-4,5-dihydro-1H-pyrrolo[3,2-b]pyridine-6-carbonitrile]	greater than 4.0

Same assay, conditions: same AMPK enzymatic assay; ATP 100 μM, peptide 2 μM

SMILES	average pEC50
COc1cccc(-c2c(O)c3c(cc(Cl)n3-c3ccc(-c4ccsc4)cc3)[nH]c2=O)c1 [Example 150, 2-Chloro-7-hydroxy-6-[3-(methyloxy)phenyl]-1-[4-(3-thienyl)phenyl]-1,4-dihydro-5H-pyrrolo[3,2-b]pyridin-5-one]	greater than 4.5
Cc1csc(-c2ccc(-n3ccc4[nH]c(=O)c(C#N)c(O)c43)cc2)c1 [Example 85, 7-Hydroxy-1-[4-(4-methyl-2-thienyl)phenyl]-5-oxo-4,5-dihydro-1H-pyrrolo [3,2-b]pyridine-6-carbonitrile]	greater than 4.5
O=c1[nH]c2cc(Cl)n(-c3ccc(C4CCCCC4)cc3)c2c(O)c1-c1ccccc1 [Example 159]	greater than 4.5
N#Cc1c(O)c2c(cc(Cl)n2-c2ccc(-c3csc(C(N)=O)c3)cc2)[nH]c1=O [Example 97, 4-[4-(2-Chloro-6-cyano-7-hydroxy-5-oxo-4,5-dihydro-1H-pyrrolo[3,2-b]pyridin-1-yl)phenyl]-2-thiophenecarboxamide]	greater than 4.5
COc1cccc(-c2ccc(-n3c(Cl)cc4[nH]c(=O)c(-c5cccc(Cl)c5)c(O)c43)cc2)c1O [Example 165, 2-Chloro-6-(3-chlorophenyl)-7-hydroxy-1-[2′-hydroxy-3′-(methyloxy)-4-biphenylyl]-1,4-dihydro-5H-pyrrolo[3,2-b]pyridin-5-one]	greater than 4.5
Cc1ccc(-n2c(Cl)cc3[nH]c(=O)c(-c4ccccc4)c(O)c32)cc1C [Example 141, 2-Chloro-1-(3,4-dimethylphenyl)-7-hydroxy-6-phenyl-1,4-dihydro-5H-pyrrolo[3,2-b]pyridin-5-one]	greater than 4.5
N#Cc1c(O)c2c(cc(Cl)n2-c2ccc(-c3cscn3)cc2)[nH]c1=O [Example 100, 2-Chloro-7-hydroxy-5-oxo-1-[4-(1,3-thiazol-4-yl)phenyl]-4,5-dihydro-1H-pyrrolo[3,2-b]pyridine-6-carbonitrile]	greater than 4.5
Cc1nc(-c2ccc(-n3c(Cl)cc4[nH]c(=O)c(C#N)c(O)c43)cc2)cs1 [Example 107, 2-Chloro-7-hydroxy-1-[4-(2-methyl-1,3-thiazol-4-yl)phenyl]-5-oxo-4,5-dihydro-1H-pyrrolo[3,2-b]pyridine-6-carbonitrile]	greater than 4.5
O=c1[nH]c2cc(Cl)n(-c3ccc(OC(F)(F)F)cc3)c2c(O)c1-c1ccccc1F [Example 138, 2-Chloro-6-(2-fluorophenyl)-7-hydroxy-1-{4-[(trifluoromethyl)oxy]phenyl}-1,4-dihydro-5H-pyrrolo[3,2-b]pyridin-5-one]	greater than 4.5
Cc1ccsc1-c1ccc(-n2ccc3[nH]c(=O)c(C#N)c(O)c32)cc1 [Example 89, 7-Hydroxy-1-[4-(3-methyl-2-thienyl)phenyl]-5-oxo-4,5-dihydro-1H-pyrrolo[3,2-b]pyridine-6-carbonitrile]	greater than 4.5
N#Cc1c(O)c2c(ccn2-c2ccc(-c3cscn3)cc2)[nH]c1=O [Example 88, 7-Hydroxy-5-oxo-1-[4-(1,3-thiazol-4-yl)phenyl]-4,5-dihydro-1H-pyrrolo[3,2-b]pyridine-6-carbonitrile]	greater than 4.5
N#Cc1c(O)c2c(cc(Cl)n2-c2ccc(-c3cccc(Cl)c3O)cc2)[nH]c1=O [Example 115, 2-Chloro-1-(3′-chloro-2′-hydroxy-4-biphenylyl)-7-hydroxy-5-oxo-4,5-dihydro-1H-pyrrolo[3,2-b]pyridine-6-carbonitrile]	greater than 4.5

Continued, values first:

average pEC50	SMILES
greater than 4.5	Cc1ccc(-n2c(Cl)cc3[nH]c(=O)c(-c4ccc(C#N)cc4)c(O)c32)cc1 [Example 140, 4-[2-Chloro-7-hydroxy-1-(4-methylphenyl)-5-oxo-4,5-dihydro-1H-pyrrolo[3,2-b]pyridin-6-yl]benzonitrile]
greater than 4.5	Cc1ccc(-n2c(Cl)cc3[nH]c(=O)c(-c4cccc(F)c4)c(O)c32)cc1 [Example 135, 2-Chloro-6-(3-fluorophenyl)-7-hydroxy-1-(4-methylphenyl)-1,4-dihydro-5H-pyrrolo[3,2-b]pyridin-5-one]
greater than 4.5	N#CCc1ccc(-n2c(Cl)cc3[nH]c(=O)c(-c4ccccc4)c(O)c32)cc1 [Example 144, [4-(2-Chloro-7-hydroxy-5-oxo-6-phenyl-4,5-dihydro-1H-pyrrolo [3,2-b]pyridin-1-yl)phenyl]acetonitrile]
greater than 4.5	O=c1[nH]c2cc(Cl)n(-c3ccc(F)cc3)c2c(O)c1-c1ccccc1 [Example 126, 2-Chloro-1-(4-fluorophenyl)-7-hydroxy-6-phenyl-1,4-dihydro-5H-pyrrolo[3,2-b]pyridin-5-one]
greater than 4.5	Cc1ccc(O)c(-c2ccc(-n3c(Cl)cc4[nH]c(=O)c(C#N)c(O)c43)cc2)c1 [Example 120, 2-Chloro-7-hydroxy-1-(2′-hydroxy-5′-methyl-4-biphenylyl)-5-oxo-4,5-dihydro-1H-pyrrolo[3,2-b]pyridine-6-carbonitrile]
greater than 4.5	COc1cccc(-c2ccc(-n3c(Cl)cc4[nH]c(=O)c(-c5ccc(C#N)cc5)c(O)c43)cc2)c1O [Example 167, 4-{2-Chloro-7-hydroxy-1-[2′-hydroxy-3′-(methyloxy)-4-biphenylyl]-5-oxo-4,5-dihydro-1H-pyrrolo[3,2-b]pyridin-6-yl}benzonitrile]
greater than 4.5	COc1cccc(F)c1-c1ccc(-n2c(Cl)cc3[nH]c(=O)c(C#N)c(O)c32)cc1 [Example 93, 2-Chloro-1-[2′-fluoro-6′-(methyloxy)-4-biphenylyl]-7-hydroxy-5-oxo-4,5-dihydro-1H-pyrrolo[3,2-b]pyridine-6-carbonitrile]
greater than 4.5	N#Cc1c(O)c2c(cc(Cl)n2-c2ccc(-c3ccc(F)cc3O)cc2)[nH]c1=O [Example 84, 2-Chloro-1-(4′-fluoro-2′-hydroxy-4-biphenylyl)-7-hydroxy-5-oxo-4,5-dihydro-1H-pyrrolo[3,2-b]pyridine-6-carbonitrile]
greater than 4.5	Cc1ccc(-n2c(Cl)cc3[nH]c(=O)c(-c4cccc(Br)c4)c(O)c32)cc1 [Example 145, 6-(3-Bromophenyl)-2-chloro-7-hydroxy-1-(4-methylphenyl)-1,4-dihydro-5H-pyrrolo [3,2-b]pyridin-5-one]
greater than 4.5	Cc1ccsc1-c1ccc(-n2c(Cl)cc3[nH]c(=O)c(C#N)c(O)c32)cc1 [Example 105, 2-Chloro-7-hydroxy-1-[4-(3-methyl-2-thienyl)phenyl]-5-oxo-4,5-dihydro-1H-pyrrolo[3,2-b]pyridine-6-carbonitrile]
